# Literature values in US10420731B1, “Method of synthesizing lignin-based nanocompositions” (KING SAUD UNIVERSITY, priority 2019, dated 2019).
# Details: reported; cited from earlier work
smiles,measurement,value
COc1cc(/C=C/C(=O)CC(=O)/C=C/c2ccc(O)c(OC)c2)ccc1O [curcumin],Water solubility,less than 1 μg/mL
